Test system: BAF complex subunits and histone proteins
Assay: Mass spectrometry proteomics of purified HA-SS18 WT and HA-SS18-SSX1 complexes (Tables 5A-5E)
Parameters: species or system human
[1] = HA-SS18SSX1_CHR_peptides: protein identified in the HA-SS18-SSX1 purification from solubilized chromatin (CHR), HEK-293T
[2] = HA-SS18SSX1_NE_peptides: protein co-purified with HA-SS18-SSX1 BAF complexes from soluble nuclear extract (NE), HEK-293T cells
[3] = HA-SS18WT_CHR_peptides: HA-SS18 WT purification from nuclease-treated solubilized chromatin (CHR), HEK-293T, label = protein identified
[4] = HA-SS18SSX1 purification, NE (soluble nuclear extract) fraction, HEK-293T, peptides per identified protein
[5] = HA-SS18WT_NE_peptides: HA-SS18 WT complexes purified from nuclear extract (NE), HEK-293T, label = protein identified (Gene Symbol)
[6] = HA-SS18WT_NE_peptides: proteins co-purified with HA-SS18 WT from nuclear extract (NE), HEK-293T

Molecule | Total (total peptides) [1] | Unique (unique peptides) [1] | Total (peptides) [2] | Unique (peptides) [2] | Total (peptides) [3] | Unique (peptides) [3] | Total (total peptides) [4] | Unique (unique peptides) [4] | Total (peptides) [5] | Unique (peptides) [5] | Total (peptides) [6] | Unique (peptides) [6]
UTP14A (protein, UniProt Q9BVJ6 1-771, looked up) U3 small nucleolar …: MTANRLAESLLALSQQEELADLPKDYLLSESEDEGDNDGERKHQKLLEAISSLDGKNRRKLAERSEASLKVSEFNVSSEGSGEKLVLADLLEPVKTSSSLATVKKQLSRVKSKKTVELPLNKEEIERIHREVAFNKTAQVLSKWDPVVLKNRQAEQLVFPLEKEEPAIAPIEHVLSGWKARTPLEQEIFNLLHKNKQPVTDPLLTPVEKASLRAMSLEEAKMRRAELQRARALQSYYEAKARREKKIKSKKYHKVVKKGKAKKALKEFEQLRKVNPAAALEELEKIEKARMMERMSLKHQNSGKWAKSKAIMAKYDLEARQAMQEQLSKNKELTQKLQVASESEEEEGGTEDVEELLVPDVVNEVQMNADGPNPWMLRSCTSDTKEAATQEDPEQLPELEAHGVSESEGEERPVAEEEILLREFEERRSLRKRSELSQDAEPAGSQETKDSGSQEVLSELRVLSQKLKENHQSRKQKASSEGTIPQVQREEPAPEEEEPLLLQRPERVQTLEELEELGKEECFQNKELPRPVLEGQQSERTPNNRPDAPKEKKKKEQMIDLQNLLTTQSPSVKSLAVPTIEELEDEEERNHRQMIKEAFAGDDVIRDFLKEKREAVEASKPKDVDLTLPGWGEWGGVGLKPSAKKRRRFLIKAPEGPPRKDKNLPNVIINEKRNIHAAAHQVRVLPYPFTHHWQFERTIQTPIGSTWNTQRAFQKLTTPKVVTKPGHIINPIKAEDVGYRSSSRSDLSVIQRNPKRITTRHKKQLKKCSVD | 16 | 11 | 1 | 1 | 6 | 5 | – | – | – | – | – | –
ADNP (protein, UniProt Q9H2P0 1-1102, looked up) Activity-dependent …: MFQLPVNNLGSLRKARKTVKKILSDIGLEYCKEHIEDFKQFEPNDFYLKNTTWEDVGLWDPSLTKNQDYRTKPFCCSACPFSSKFFSAYKSHFRNVHSEDFENRILLNCPYCTFNADKKTLETHIKIFHAPNASAPSSSLSTFKDKNKNDGLKPKQADSVEQAVYYCKKCTYRDPLYEIVRKHIYREHFQHVAAPYIAKAGEKSLNGAVPLGSNAREESSIHCKRCLFMPKSYEALVQHVIEDHERIGYQVTAMIGHTNVVVPRSKPLMLIAPKPQDKKSMGLPPRIGSLASGNVRSLPSQQMVNRLSIPKPNLNSTGVNMMSSVHLQQNNYGVKSVGQGYSVGQSMRLGLGGNAPVSIPQQSQSVKQLLPSGNGRSYGLGSEQRSQAPARYSLQSANASSLSSGQLKSPSLSQSQASRVLGQSSSKPAAAATGPPPGNTSSTQKWKICTICNELFPENVYSVHFEKEHKAEKVPAVANYIMKIHNFTSKCLYCNRYLPTDTLLNHMLIHGLSCPYCRSTFNDVEKMAAHMRMVHIDEEMGPKTDSTLSFDLTLQQGSHTNIHLLVTTYNLRDAPAESVAYHAQNNPPVPPKPQPKVQEKADIPVKSSPQAAVPYKKDVGKTLCPLCFSILKGPISDALAHHLRERHQVIQTVHPVEKKLTYKCIHCLGVYTSNMTASTITLHLVHCRGVGKTQNGQDKTNAPSRLNQSPSLAPVKRTYEQMEFPLLKKRKLDDDSDSPSFFEEKPEEPVVLALDPKGHEDDSYEARKSFLTKYFNKQPYPTRREIEKLAASLWLWKSDIASHFSNKRKKCVRDCEKYKPGVLLGFNMKELNKVKHEMDFDAEWLFENHDEKDSRVNASKTADKKLNLGKEDDSSSDSFENLEEESNESGSPFDPVFEVEPKISNDNPEEHVLKVIPEDASESEEKLDQKEDGSKYETIHLTEEPTKLMHNASDSEVDQDDVVEWKDGASPSESGPGSQQVSDFEDNTCEMKPGTWSDESSQSEDARSSKPAAKKKATMQGDREQLKWKNSSYGKVEGFWSKDQSQWKNASENDERLSNPQIEWQNSTIDSEDGEQFDNMTDGVAEPMHGSLAGVKLSSQQA | 15 | 14 | – | – | 12 | 9 | – | – | – | – | – | –
POGZ (protein, UniProt Q7Z3K3 1-1410, looked up) Pogo transposable element …: MADTDLFMECEEEELEPWQKISDVIEDSVVEDYNSVDKTTTVSVSQQPVSAPVPIAAHASVAGHLSTSTTVSSSGAQNSDSTKKTLVTLIANNNAGNPLVQQGGQPLILTQNPAPGLGTMVTQPVLRPVQVMQNANHVTSSPVASQPIFITTQGFPVRNVRPVQNAMNQVGIVLNVQQGQTVRPITLVPAPGTQFVKPTVGVPQVFSQMTPVRPGSTMPVRPTTNTFTTVIPATLTIRSTVPQSQSQQTKSTPSTSTTPTATQPTSLGQLAVQSPGQSNQTTNPKLAPSFPSPPAVSIASFVTVKRPGVTGENSNEVAKLVNTLNTIPSLGQSPGPVVVSNNSSAHGSQRTSGPESSMKVTSSIPVFDLQDGGRKICPRCNAQFRVTEALRGHMCYCCPEMVEYQKKGKSLDSEPSVPSAAKPPSPEKTAPVASTPSSTPIPALSPPTKVPEPNENVGDAVQTKLIMLVDDFYYGRDGGKVAQLTNFPKVATSFRCPHCTKRLKNNIRFMNHMKHHVELDQQNGEVDGHTICQHCYRQFSTPFQLQCHLENVHSPYESTTKCKICEWAFESEPLFLQHMKDTHKPGEMPYVCQVCQYRSSLYSEVDVHFRMIHEDTRHLLCPYCLKVFKNGNAFQQHYMRHQKRNVYHCNKCRLQFLFAKDKIEHKLQHHKTFRKPKQLEGLKPGTKVTIRASRGQPRTVPVSSNDTPPSALQEAAPLTSSMDPLPVFLYPPVQRSIQKRAVRKMSVMGRQTCLECSFEIPDFPNHFPTYVHCSLCRYSTCCSRAYANHMINNHVPRKSPKYLALFKNSVSGIKLACTSCTFVTSVGDAMAKHLVFNPSHRSSSILPRGLTWIAHSRHGQTRDRVHDRNVKNMYPPPSFPTNKAATVKSAGATPAEPEELLTPLAPALPSPASTATPPPTPTHPQALALPPLATEGAECLNVDDQDEGSPVTQEPELASGGGGSGGVGKKEQLSVKKLRVVLFALCCNTEQAAEHFRNPQRRIRRWLRRFQASQGENLEGKYLSFEAEEKLAEWVLTQREQQLPVNEETLFQKATKIGRSLEGGFKISYEWAVRFMLRHHLTPHARRAVAHTLPKDVAENAGLFIDFVQRQIHNQDLPLSMIVAIDEISLFLDTEVLSSDDRKENALQTVGTGEPWCDVVLAILADGTVLPTLVFYRGQMDQPANMPDSILLEAKESGYSDDEIMELWSTRVWQKHTACQRSKGMLVMDCHRTHLSEEVLAMLSASSTLPAVVPAGCSSKIQPLDVCIKRTVKNFLHKKWKEQAREMADTACDSDVLLQLVLVWLGEVLGVIGDCPELVQRSFLVASVLPGPDGNINSPTRNADMQEELIASLEEQLKLSGEHSESSTPRPRSSPEETIEPESLHQLFEGESETESFYGFEEADLDLMEI | 15 | 14 | – | – | 10 | 10 | – | – | – | – | – | –
SLC1A5 (protein, UniProt Q15758 1-541, looked up) Neutral amino acid …: MVADPPRDSKGLAAAEPTANGGLALASIEDQGAAAGGYCGSRDQVRRCLRANLLVLLTVVAVVAGVALGLGVSGAGGALALGPERLSAFVFPGELLLRLLRMIILPLVVCSLIGGAASLDPGALGRLGAWALLFFLVTTLLASALGVGLALALQPGAASAAINASVGAAGSAENAPSKEVLDSFLDLARNIFPSNLVSAAFRSYSTTYEERNITGTRVKVPVGQEVEGMNILGLVVFAIVFGVALRKLGPEGELLIRFFNSFNEATMVLVSWIMWYAPVGIMFLVAGKIVEMEDVGLLFARLGKYILCCLLGHAIHGLLVLPLIYFLFTRKNPYRFLWGIVTPLATAFGTSSSSATLPLMMKCVEENNGVAKHISRFILPIGATVNMDGAALFQCVAAVFIAQLSQQSLDFVKIITILVTATASSVGAAGIPAGGVLTLAIILEAVNLPVDHISLILAVDWLVDRSCTVLNVEGDALGAGLLQNYVDRTESRSTEPELIQVKSELPLDPLPVPTEEGNPLLKHYRGPAGDATVASEKESVM | – | – | – | – | – | – | 9 | 8 | 6 | 5 | – | –
HADHB (protein, UniProt P55084 34-474, looked up) Trifunctional enzyme subunit …: AAPAVQTKTKKTLAKPNIRNVVVVDGVRTPFLLSGTSYKDLMPHDLARAALTGLLHRTSVPKEVVDYIIFGTVIQEVKTSNVAREAALGAGFSDKTPAHTVTMACISANQAMTTGVGLIASGQCDVIVAGGVELMSDVPIRHSRKMRKLMLDLNKAKSMGQRLSLISKFRFNFLAPELPAVSEFSTSETMGHSADRLAAAFAVSRLEQDEYALRSHSLAKKAQDEGLLSDVVPFKVPGKDTVTKDNGIRPSSLEQMAKLKPAFIKPYGTVTAANSSFLTDGASAMLIMAEEKALAMGYKPKAYLRDFMYVSQDPKDQLLLGPTYATPKVLEKAGLTMNDIDAFEFHEAFSGQILANFKAMDSDWFAENYMGRKTKVGLPPLEKFNNWGGSLSLGHPFGATGCRLVMAAANRLRKEGGQYGLVAACAAGGQGHAMIVEAYPK | – | – | – | – | – | – | 9 | 8 | 6 | 6 | – | –
ATP5C1 (protein, UniProt P36542 26-298, looked up) ATP synthase F(1) complex …: ATLKDITRRLKSIKNIQKITKSMKMVAAAKYARAERELKPARIYGLGSLALYEKADIKGPEDKKKHLLIGVSSDRGLCGAIHSSIAKQMKSEVATLTAAGKEVMLVGIGDKIRGILYRTHSDQFLVAFKEVGRKPPTFGDASVIALELLNSGYEFDEGSIIFNKFRSVISYKTEEKPIFSLNTVASADSMSIYDDIDADVLQNYQEYNLANIIYYSLKESTTSEQSARMTAMDNASKNASEMIDKLTLTFNRTRQAVITKELIEIISGAAALD | – | – | – | – | – | – | 9 | 6 | 12 | 8 | – | –
SUCLA2 (protein, UniProt Q9P2R7 53-463, looked up) Succinate--CoA ligase …: LSLHEYMSMELLQEAGVSVPKGYVAKSPDEAYAIAKKLGSKDVVIKAQVLAGGRGKGTFESGLKGGVKIVFSPEEAKAVSSQMIGKKLFTKQTGEKGRICNQVLVCERKYPRREYYFAITMERSFQGPVLIGSSHGGVNIEDVAAESPEAIIKEPIDIEEGIKKEQALQLAQKMGFPPNIVESAAENMVKLYSLFLKYDATMIEINPMVEDSDGAVLCMDAKINFDSNSAYRQKKIFDLQDWTQEDERDKDAAKANLNYIGLDGNIGCLVNGAGLAMATMDIIKLHGGTPANFLDVGGGATVHQVTEAFKLITSDKKVLAILVNIFGGIMRCDVIAQGIVMAVKDLEIKIPVVVRLQGTRVDDAKALIADSGLKILACDDLDEAARMVVKLSEIVTLAKQAHVDVKFQLPI | – | – | 1 | 1 | – | – | 9 | 6 | 5 | 5 | 1 | 1
